In patent US20180149638A1:
Results are given in words; binding and its absence hold for the method and conditions named. In cells and extracts the contact can be indirect. Some entries that bind do so weakly or less than the wild type.

By UniProt entry, the sequences of proteins in these tests, tags left out. Where a name states a change or a piece, a line headed by the entry shows the natural chain unless it says otherwise.
UniProt Q99683: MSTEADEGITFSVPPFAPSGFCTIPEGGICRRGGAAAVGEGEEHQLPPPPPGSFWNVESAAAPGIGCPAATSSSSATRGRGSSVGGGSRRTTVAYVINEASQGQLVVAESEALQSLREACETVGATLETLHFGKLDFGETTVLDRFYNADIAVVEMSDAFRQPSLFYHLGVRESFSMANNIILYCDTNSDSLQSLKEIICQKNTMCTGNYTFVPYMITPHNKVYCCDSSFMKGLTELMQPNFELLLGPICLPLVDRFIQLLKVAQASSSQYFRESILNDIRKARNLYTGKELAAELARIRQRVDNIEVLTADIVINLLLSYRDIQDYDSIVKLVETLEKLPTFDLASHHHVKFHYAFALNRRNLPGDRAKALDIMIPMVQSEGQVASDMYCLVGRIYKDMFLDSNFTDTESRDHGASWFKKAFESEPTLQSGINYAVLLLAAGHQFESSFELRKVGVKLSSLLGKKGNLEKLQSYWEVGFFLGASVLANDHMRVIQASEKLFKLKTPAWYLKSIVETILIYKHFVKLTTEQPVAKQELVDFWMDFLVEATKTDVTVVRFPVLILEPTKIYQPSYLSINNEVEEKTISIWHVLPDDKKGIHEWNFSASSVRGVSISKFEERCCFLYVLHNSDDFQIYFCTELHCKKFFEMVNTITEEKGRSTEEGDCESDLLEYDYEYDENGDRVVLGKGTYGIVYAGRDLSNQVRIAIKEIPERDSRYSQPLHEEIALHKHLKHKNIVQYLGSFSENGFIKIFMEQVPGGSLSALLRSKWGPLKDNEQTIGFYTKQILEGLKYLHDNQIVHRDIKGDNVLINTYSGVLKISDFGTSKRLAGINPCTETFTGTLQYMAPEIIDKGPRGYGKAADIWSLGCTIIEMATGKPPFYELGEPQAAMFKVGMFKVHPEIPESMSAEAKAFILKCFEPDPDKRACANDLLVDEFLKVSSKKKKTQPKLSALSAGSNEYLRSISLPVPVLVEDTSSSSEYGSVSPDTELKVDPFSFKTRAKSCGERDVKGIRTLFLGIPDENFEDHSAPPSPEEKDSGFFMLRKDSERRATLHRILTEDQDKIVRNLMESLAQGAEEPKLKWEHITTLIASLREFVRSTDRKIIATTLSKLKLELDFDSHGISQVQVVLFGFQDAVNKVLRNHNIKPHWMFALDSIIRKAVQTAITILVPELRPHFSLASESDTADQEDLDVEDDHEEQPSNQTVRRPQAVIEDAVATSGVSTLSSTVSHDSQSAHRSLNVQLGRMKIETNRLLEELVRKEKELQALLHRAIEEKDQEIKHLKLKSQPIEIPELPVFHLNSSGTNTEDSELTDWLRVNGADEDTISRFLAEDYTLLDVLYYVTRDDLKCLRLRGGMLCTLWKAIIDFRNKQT

Target: Myc-ASK1N (Myc-tagged N-terminal amino acids 1 to 678 of apoptosis signal-regulated kinase 1) (Homo sapiens (Human)) (UniProt Q99683)
Assay: co-immunoprecipitation with anti-HA from HEK-293T lysate, Western blot for HA-ASK1N and Myc-ASK1N

binding: binds
Substance: HA-ASK1N (HA-tagged N-terminal amino acids 1 to 678 of apoptosis signal-regulated kinase 1) (from UniProt Q99683 1-678)
